This note sets out measurements from PubChem BioAssay AID2685 (National Center for Advancing Translational Sciences (NCATS), 2010).

Some of the results follow. Further columns of the screen follow, without active or inactive calls. Compounds called inactive in the main read-out are mostly missing here. Words in brackets tell the shape of the fitted curve; partial curves, single points and poor fits give uncertain potencies.

A short description of this assay: qHTS Assay for Lipid Storage Modulators in Drosophila S3 Cells.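 On cell number change: cells counted by Cell Tracker Red CMTPX staining in the red channel.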 The settings on record: BODIPY lipid droplet fluorescence, 18-24 h; for cell number change: measured here: cell count max response, cells fed with added oleic acid. The essentials: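 Drosophila S3 cells loaded with oleic acid (400 uM, as added) and compounds at several concentrations; lipid droplets imaged by 488-nm laser-scanning cytometry, 500–530 nm intensity and object ratio to cell channel. Percent activity normalized to 20 uM Triacsin C.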
In general terms: In qHTS, concentration-response curves come from the screen itself.

Where [1] appears, read: measured here: lipid fluorescence (Fed channel) AC50, cells fed with added oleic acid.
[2] abbreviates: measured here: cell number channel AC50, cells fed with added oleic acid.

With `O=C1Nc2ccccc2C(=O)C1(Cl)Cc1ccccc1` (centres undefined), the cell number change was -18.4%. Further, the AC50 under setting [1] is 7.31 µM [falling, partial curve].

As for `CC(=O)Nc1ccc(NC(=O)c2ccc(C3SCC(=O)N3CCc3ccccc3)cc2)cc1` (centres undefined), the cell number change was 4.89%. Also, the AC50 under setting [1] was 0.0206 µM [rising, full curve, poor fit].

Consider `CN(Cc1nc2c(s1)CCCC2)C(=O)CCc1nnc(-c2ccc3c(c2)OCO3)o1`, for which the cell number change turned out to be 34.3%. Further, under setting [2], the AC50 is 0.461 µM [rising, full curve, poor fit]. For the same compound, the AC50 under setting [1] is 0.517 µM [rising, full curve, poor fit].

Consider `COc1ccc(S(=O)(=O)N2CCN(C(=O)c3ccco3)CC2)cc1C(C)(C)C`, for which the cell number change was -4.99%.

As for `O=C(COC(=O)c1cc([N+](=O)[O-])ccc1N1CCOCC1)c1ccc(F)cc1`, the cell number change amounted to 31.5%. Further, under setting [2], the AC50 is 0.259 µM [rising, full curve, poor fit]. Also, under setting [1], the AC50 is 8.2 µM [rising, partial curve, poor fit].

As for `CC(C)N(C1=N/C(=C\c2ccco2)C(=O)N1c1ccccc1)C(C)C`, the cell number change was found to be 6.31%. Besides, under setting [2], the AC50 is 0.13 µM [falling, full curve, poor fit].

Regarding `O=C(COc1ccccc1Br)Nc1ccc(S(=O)(=O)N2CCCC2)cc1`, the cell number change was -30.1%. Moreover, the AC50 under setting [1] is 4.11 µM [falling, single point].

As for `O=C(CN1CCN(Cc2ccccc2)CC1)NNC(=O)c1ccccc1`, the cell number change is -0.752%. Besides, the AC50 under setting [1] is 1.46 µM [falling, partial curve, poor fit].

For `N#Cc1cc(-c2ccccc2)oc1/N=C/c1ccccc1O`, the AC50 was 0.103 µM [falling, full curve] under setting [2] and 0.0731 µM [falling, full curve, poor fit] under setting [1].

For the compound `O=C(NCCN1C(=O)C2C3C=CC(C3)C2C1=O)Nc1cccnc1` (centres undefined), the cell number change is 8.78%. Under setting [1], the half-maximal activity concentration (AC50) is 29.1 µM [falling, single point].

Take `COc1cccc(C2c3[nH]c4ccccc4c3CCN2Cc2ncc[nH]2)c1` (centres undefined): the cell number change was -26.1%. The AC50 under setting [1] was 20.6 µM [falling, single point].

For the compound `Cc1ccc(N(CC(=O)NC(C)(C)C)C(=O)CCC(=O)Nc2nccs2)c(C)c1`, the cell number change was -8.24%.

`O=C(Nc1c(C(=O)N2CCOCC2)cnn1-c1ccccc1)c1ccc(F)cc1`: the cell number change was -3.23%. Further, under setting [1], the AC50 is 0.13 µM [falling, full curve, poor fit].

For `C=CCNC(=O)CN1CCN(Cc2ccc3c(c2)OCO3)CC1`, the cell number change is 0.777%. Besides, under setting [1], the AC50 was 0.164 µM [rising, full curve, poor fit].

As to `CC(=O)N1CCN(c2ccc(NC(=O)c3ccc(Cl)cc3)cc2)CC1`, the cell number change was determined as 12.6%.

With `COc1cc(OC)c(OC)cc1CNC(=O)c1cccc(S(=O)(=O)N2CCc3ccccc3C2)c1`, the cell number change is 130%. In addition, the AC50 under setting [2] is 5.8 µM [rising, partial curve].

Take `COC(=O)c1ccccc1N1C(=O)C2C(C1=O)C1C=CC2C12CC2` (centres undefined): the cell number change was -123%. Under setting [2], the AC50 was 25.9 µM [falling, partial curve].

Regarding `Cc1cc(N2CCN(S(=O)(=O)c3ccccc3)CC2)nc2c(C)cccc12`, the cell number change is 44%. Also, the AC50 under setting [2] was 35.5 µM [rising, single point].

As for `S=C1NC2(CCCCCC2)N=C1c1ccccc1`, the cell number change was -21%. Also, under setting [1], the AC50 was 2.59 µM [falling, full curve, poor fit].

Take `C=CCN1CC2CC3(COc4cc(C)cc(C)c4)C=CC2(O3)C1=O` (centres undefined): the cell number change came out at 61.8%. For the same compound, under setting [2], the AC50 was 13 µM [rising, partial curve]. Also, under setting [1], the AC50 was 6.51 µM [falling, single point].

For `CCc1ccccc1Nc1nc(N)nc(COC(=O)CCC(=O)c2ccc(F)cc2)n1`, the cell number change was -2.29%. Further, under setting [1], the AC50 was 6.51 µM [rising, partial curve, poor fit].

In the case of `CCOC(=O)C1(C/C(C)=N/NC(N)=O)CC(C)OC1=O` (centres undefined), the cell number change was 61.6%. The AC50 under setting [2] was 29.1 µM [rising, single point].

Take `COc1ccc(-c2cn(Cc3ccc4c(c3)C(=O)c3ccccc3C4=O)nn2)cc1`: the cell number change was 3.88%. Further, the AC50 under setting [1] was 0.092 µM [rising, full curve].

Regarding `OCCCNc1nccc(-c2cc(Nc3cccc(Cl)c3)ncn2)n1`, the cell number change was -45.4%. For the same compound, the AC50 under setting [2] was 5.8 µM [falling, full curve]. In addition, under setting [1], the AC50 was 6.51 µM [falling, partial curve].

`COCCCNc1oc(-c2ccccc2Cl)nc1C#N`: the cell number change came out at 5.81%. Besides, under setting [1], the AC50 was 0.0731 µM [rising, full curve].

On to `O=C(/C=C/c1ccc(Cl)cc1)N1CCN(c2ncccn2)CC1`, for which the cell number change is 37.2%. Also, the AC50 under setting [2] was 11.6 µM [rising, single point].

Consider `CC1C=CCC2C(=O)N(c3ccc(OC(=O)c4ccco4)cc3)C(=O)C12` (centres undefined), for which the cell number change was determined as 0.729%. In addition, the AC50 under setting [1] was 4.11 µM [falling, single point].

For the compound `Clc1ccc(-c2c[n+](Cc3ccc(Cl)cc3Cl)c3n2CCCCC3)cc1`, the cell number change was -57.9%. Besides, the AC50 under setting [2] was 18.4 µM [falling, single point]. Moreover, the AC50 under setting [1] is 29.1 µM [falling, single point].

Take `Cc1cccn2c(=O)c3cc(C(=O)NCc4ccco4)c(=N)n(C4CCCCC4)c3nc12`: the cell number change came out at 21.8%.

For `COc1ccc(CCn2c(-c3ccco3)nc3ccccc3c2=O)cc1OC`, the AC50 is, setting by setting: under setting [2], 0.58 µM [rising, full curve]; under setting [1], 0.58 µM [rising, full curve].

For `Cc1ccc(CC(=O)NC2CCN(Cc3ccccc3)CC2)cc1`, the cell number change came out at 4.95%. In addition, the AC50 under setting [1] is 20.6 µM [rising, single point].

On to `COc1ccccc1NC(=O)CCc1nc2ccccc2s1`, for which, under setting [1], the AC50 is 6.51 µM [falling, single point].

As for `Cc1ccc(-c2nnc(COC(=O)c3cccs3)o2)cc1`, the cell number change was -8.01%. Further, the AC50 under setting [1] was 2.91 µM [rising, single point].

`CN(CC(=O)Nc1ccc(Cl)c(C(F)(F)F)c1)C(=O)c1ccc(N2CCOCC2)c([N+](=O)[O-])c1`: the cell number change was 42.2%. Also, the AC50 under setting [2] was 18.4 µM [rising, single point]. The AC50 under setting [1] was 18.4 µM [rising, partial curve].

Consider `O=C(CN1CCN(C2CCCCC2)CC1)c1c[nH]c2ccccc12`, for which the cell number change is -34.8%. For the same compound, the concentration at half-maximal activity (AC50) under setting [2] was 10.3 µM [falling, partial curve].

For the compound `COc1ccc(S(=O)(=O)N2CCC(C(=O)NCC3CCCO3)CC2)cc1OC` (centres undefined), the cell number change was -14.5%.

On to `COc1cccc(NC(=O)C/C(C)=N/NC(=O)C2CCCCC2)c1`, for which the cell number change was -21%.

Take `O=C(CSc1nc2c(sc3ccccc32)c(=O)n1CCc1ccccc1)NCc1ccco1`: the cell number change is 48.6%. In addition, under setting [2], the AC50 was 1.03 µM [rising, full curve, poor fit]. The AC50 under setting [1] was 0.651 µM [rising, single point].

`CC(=O)Nc1cccc(NC(=O)C(F)(F)F)c1`: the cell number change was -4.46%. For the same compound, the AC50 under setting [2] is 0.651 µM [falling, single point]. Besides, under setting [1], the AC50 is 3.66 µM [rising, single point].

Turning to `Cc1ccc(S(=O)(=O)N2C(=O)CCC2C(=O)O/N=C(\N)c2ccccc2)cc1` (centres undefined), under setting [1], the AC50 was 6.51 µM [rising, single point].

In the case of `Cc1ccc(NC(=O)c2c([N+](=O)[O-])cnn2C)cc1C`, the cell number change was -5.28%.

Take `Cc1ccc2nc(C)c(C)nc2c1N`: the AC50 runs as follows: under setting [2], 6.51 µM [rising, single point]; under setting [1], 6.51 µM [rising, single point].

As to `Cc1ccc(-n2nnnc2SCn2nnc3ccccc3c2=O)c(C)c1`, the cell number change was -32.8%. Further, the AC50 under setting [2] was 2.31 µM [falling, full curve]. Also, under setting [1], the AC50 is 5.8 µM [falling, partial curve].

Regarding `CNc1ccc(Br)cc(C(=O)/C=C/c2cccc(Cl)c2Cl)c1=O`, the cell number change is -44.1%. Under setting [2], the AC50 was 29.1 µM [falling, single point]. Further, under setting [1], the AC50 is 5.17 µM [falling, partial curve, poor fit].

Consider `COc1ccc(Nc2c3c(nc4c(-c5ccccc5)c(C)nn24)CCC3)cc1`, for which the cell number change was -72.2%. Also, the AC50 under setting [2] was 29.1 µM [falling, single point]. Also, the AC50 under setting [1] is 29.1 µM [falling, single point].

Take `COc1ccc(-n2nc(C(=O)NCc3ccco3)c3c4ccccc4n(C)c3c2=O)cc1Cl`: the AC50 is 2.06 µM [rising, partial curve] under setting [2] and 0.731 µM [rising, single point] under setting [1].

In the case of `Cc1c(CN2CCCCC2)c(O)n(CCO)c(=O)c1C#N`, the cell number change stood at 2.42%. Moreover, the AC50 under setting [1] was 2.31 µM [rising, single point].

As to `Cc1c(C(=O)NCC2CCCO2)cccc1[N+](=O)[O-]` (centres undefined), the cell number change was -40.8%. The AC50 under setting [2] is 29.1 µM [falling, single point]. Under setting [1], the AC50 was 6.51 µM [rising, single point].

Consider `CSc1nc2ccccc2n1CC(=O)Nc1c(C)n(C)n(-c2ccccc2)c1=O`, for which the cell number change was -17.9%. For the same compound, the AC50 under setting [2] was 0.651 µM [falling, full curve, poor fit]. Besides, the AC50 under setting [1] is 0.82 µM [rising, partial curve].

On to `COc1ccc(CSc2nc3ccccc3c(=O)[nH]2)cc1F`, for which the cell number change was determined as 14.2%. Besides, the AC50 under setting [1] was 0.103 µM [rising, full curve, poor fit].

Consider `CCOc1cc2[nH]c(=O)n(CCCCCC(=O)NC3CCCC3)c(=O)c2cc1OCC`, for which the cell number change was -37.1%. In addition, the AC50 under setting [2] was 4.61 µM [falling, full curve, poor fit].

In the case of `Cc1cccc(NC(=O)C2CC(=O)OC23CCCCC3)c1` (centres undefined), the cell number change was -54.9%. Further, the AC50 under setting [2] was 25.9 µM [falling, single point]. In addition, under setting [1], the AC50 was 0.58 µM [falling, single point].

`CCOc1ccc(C(=O)SC2=NCCS2)cc1`: the cell number change is -25.9%. In addition, under setting [1], the AC50 is 29.1 µM [falling, single point].

For `O=C(CNC(=O)c1cccs1)N=Nc1c(O)[nH]c2ccc([N+](=O)[O-])cc12`, the cell number change was -10.4%. Also, the AC50 under setting [1] is 29.1 µM [falling, single point].

Regarding `CC(C)SCC(=O)Nc1ncc2c(n1)-c1ccccc1CC2`, the cell number change amounted to 46.3%.

As for `Cc1ccccc1C(=O)NNC(=O)c1cccc(Br)c1`, the cell number change was determined as 11.7%. Moreover, the AC50 under setting [1] was 29.1 µM [rising, single point].

With `O=C(Nc1nnc(CCN2CCOCC2)s1)c1ccccc1`, the cell number change was determined as 18.9%. Further, the AC50 under setting [2] was 0.164 µM [rising, full curve, poor fit]. In addition, the AC50 under setting [1] was 3.26 µM [rising, full curve, poor fit].

A word on the AC50: it is the concentration at which the activity in the assay is half-maximal.
